The text below walks through data of publication doi:10.1101/512061.

Sequences of proteins named here, by UniProt entry; tags and fusion partners are left off.
UniProt Q14980: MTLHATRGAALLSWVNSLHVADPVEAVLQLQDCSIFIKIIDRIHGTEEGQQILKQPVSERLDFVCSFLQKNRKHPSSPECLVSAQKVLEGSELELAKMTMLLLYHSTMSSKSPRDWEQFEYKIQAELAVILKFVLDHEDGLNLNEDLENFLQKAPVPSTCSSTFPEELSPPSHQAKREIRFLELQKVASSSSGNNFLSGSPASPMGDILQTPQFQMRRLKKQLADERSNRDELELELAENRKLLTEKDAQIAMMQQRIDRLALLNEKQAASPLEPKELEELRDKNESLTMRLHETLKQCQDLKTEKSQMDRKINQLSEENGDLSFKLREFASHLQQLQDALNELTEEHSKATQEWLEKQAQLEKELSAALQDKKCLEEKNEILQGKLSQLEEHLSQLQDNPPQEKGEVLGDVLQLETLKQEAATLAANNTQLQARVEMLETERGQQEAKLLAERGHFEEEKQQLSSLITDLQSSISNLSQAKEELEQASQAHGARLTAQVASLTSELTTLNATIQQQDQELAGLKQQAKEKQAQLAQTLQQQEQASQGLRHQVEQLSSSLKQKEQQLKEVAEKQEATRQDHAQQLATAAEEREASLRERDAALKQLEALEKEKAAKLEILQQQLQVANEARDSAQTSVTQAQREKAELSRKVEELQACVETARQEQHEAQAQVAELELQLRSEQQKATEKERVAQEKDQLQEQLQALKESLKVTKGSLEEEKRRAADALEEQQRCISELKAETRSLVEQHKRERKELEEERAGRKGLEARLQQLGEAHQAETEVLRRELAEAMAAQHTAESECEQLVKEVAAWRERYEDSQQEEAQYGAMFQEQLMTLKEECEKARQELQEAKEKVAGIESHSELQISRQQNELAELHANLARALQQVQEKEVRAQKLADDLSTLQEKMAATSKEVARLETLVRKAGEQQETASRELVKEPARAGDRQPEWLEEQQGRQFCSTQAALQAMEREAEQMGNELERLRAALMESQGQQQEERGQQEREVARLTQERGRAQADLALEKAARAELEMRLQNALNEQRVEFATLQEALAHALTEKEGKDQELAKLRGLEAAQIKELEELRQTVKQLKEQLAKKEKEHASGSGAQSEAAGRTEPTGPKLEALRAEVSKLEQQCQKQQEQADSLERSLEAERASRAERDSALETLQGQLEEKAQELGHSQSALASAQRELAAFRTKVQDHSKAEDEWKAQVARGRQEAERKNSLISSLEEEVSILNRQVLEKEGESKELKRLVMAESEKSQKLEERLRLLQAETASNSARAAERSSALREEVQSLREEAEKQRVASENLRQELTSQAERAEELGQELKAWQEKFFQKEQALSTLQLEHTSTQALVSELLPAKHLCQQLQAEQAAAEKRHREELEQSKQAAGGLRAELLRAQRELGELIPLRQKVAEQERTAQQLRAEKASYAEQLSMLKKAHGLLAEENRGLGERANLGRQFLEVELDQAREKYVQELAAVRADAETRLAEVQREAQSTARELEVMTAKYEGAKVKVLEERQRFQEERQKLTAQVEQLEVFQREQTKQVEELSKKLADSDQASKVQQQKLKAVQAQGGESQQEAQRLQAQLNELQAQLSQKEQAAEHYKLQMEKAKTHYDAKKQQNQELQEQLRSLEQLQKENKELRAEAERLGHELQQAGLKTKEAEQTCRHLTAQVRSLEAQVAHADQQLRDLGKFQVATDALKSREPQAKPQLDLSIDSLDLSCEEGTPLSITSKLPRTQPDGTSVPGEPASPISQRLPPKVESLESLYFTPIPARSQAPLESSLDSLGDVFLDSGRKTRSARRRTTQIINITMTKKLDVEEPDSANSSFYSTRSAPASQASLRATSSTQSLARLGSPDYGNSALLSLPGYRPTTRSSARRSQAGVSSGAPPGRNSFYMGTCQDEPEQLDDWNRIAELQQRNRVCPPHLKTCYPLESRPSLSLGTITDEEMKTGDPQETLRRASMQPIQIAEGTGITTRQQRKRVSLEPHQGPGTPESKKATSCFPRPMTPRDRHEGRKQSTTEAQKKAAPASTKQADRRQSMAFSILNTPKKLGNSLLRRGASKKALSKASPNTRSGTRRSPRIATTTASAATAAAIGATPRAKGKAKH

No constants are given. Whether binding was seen depends on the method and setting. Binding seen in cells or lysates may run through a third protein. Some binding calls cover weakened binding; strength is not graded here. Where a sequence is shown, tags or fusion partners need not be part of it.

The experiment deals with T1, Flag-IFT27 (UniProt Q9BW83).
T1 sequence: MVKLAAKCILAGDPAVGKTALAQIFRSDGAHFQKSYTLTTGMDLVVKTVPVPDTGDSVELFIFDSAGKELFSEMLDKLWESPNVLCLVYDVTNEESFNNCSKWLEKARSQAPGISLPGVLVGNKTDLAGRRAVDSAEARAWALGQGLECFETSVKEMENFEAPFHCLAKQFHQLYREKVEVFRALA
Nature of the experiment: co-IP.

Regarding YFP-NuMA (from UniProt Q14980 1-2115), the binding entry is given as “binds”.

B1: IFT88 (protein, UniProt Q13099 1-824)
chain: MMQNVHLAPETDEDDLYSGYNDYNPIYDIEELENDAAFQQAVRTSHGRRPPITAKISSTAVTRPIATGYGSKTSLASSIGRPMTGAIQDGVTRPMTAVRAAGFTKAALRGSAFDPLSQSRGPASPLEAKKKDSPEEKIKQLEKEVNELVEESCIANSCGDLKLALEKAKDAGRKERVLVRQREQVTTPENINLDLTYSVLFNLASQYSVNEMYAEALNTYQVIVKNKMFSNAGILKMNMGNIYLKQRNYSKAIKFYRMALDQVPSVNKQMRIKIMQNIGVTFIQAGQYSDAINSYEHIMSMAPNLKAGYNLTICYFAIGDREKMKKAFQKLITVPLEIDEDKYISPSDDPHTNLVTEAIKNDHLRQMERERKAMAEKYIMTSAKLIAPVIETSFAAGYDWCVEVVKASQYVELANDLEINKAVTYLRQKDYNQAVEILKVLEKKDSRVKSAAATNLSALYYMGKDFAQASSYADIAVNSDRYNPAALTNKGNTVFANGDYEKAAEFYKEALRNDSSCTEALYNIGLTYEKLNRLDEALDCFLKLHAILRNSAEVLYQIANIYELMENPSQAIEWLMQVVSVIPTDPQVLSKLGELYDREGDKSQAFQYYYESYRYFPCNIEVIEWLGAYYIDTQFWEKAIQYFERASLIQPTQVKWQLMVASCFRRSGNYQKALDTYKDTHRKFPENVECLRFLVRLCTDLGLKDAQEYARKLKRLEKMKEIREQRIKSGRDGSGGSRGKREGSASGDSGQNYSASSKGERLSARLRALPGTNEPYESSSNKEIDASYVDPLGPQIERPKTAAKKRIDEDDFADEELGDDLLPE
With B1, the binding result is given as “binds”.
